Assay results: the supplement of paper PMC10849652
This is one part of the list.

Amino acid sequences for entries named in this document (tags omitted). A change or cut given only in a name is not applied to a line headed by its entry.
UniProt Q96NT5: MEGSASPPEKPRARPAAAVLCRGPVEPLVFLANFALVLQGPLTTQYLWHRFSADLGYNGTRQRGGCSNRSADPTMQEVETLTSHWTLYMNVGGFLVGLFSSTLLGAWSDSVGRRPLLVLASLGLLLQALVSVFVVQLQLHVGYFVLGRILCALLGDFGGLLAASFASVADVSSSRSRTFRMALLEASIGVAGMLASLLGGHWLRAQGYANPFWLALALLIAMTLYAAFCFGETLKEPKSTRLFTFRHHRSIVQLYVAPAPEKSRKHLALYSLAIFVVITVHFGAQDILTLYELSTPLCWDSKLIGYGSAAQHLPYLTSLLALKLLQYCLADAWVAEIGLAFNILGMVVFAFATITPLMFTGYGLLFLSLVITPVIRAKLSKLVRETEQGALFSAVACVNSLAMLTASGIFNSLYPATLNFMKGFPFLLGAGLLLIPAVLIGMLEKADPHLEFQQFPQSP
UniProt Q8IY92: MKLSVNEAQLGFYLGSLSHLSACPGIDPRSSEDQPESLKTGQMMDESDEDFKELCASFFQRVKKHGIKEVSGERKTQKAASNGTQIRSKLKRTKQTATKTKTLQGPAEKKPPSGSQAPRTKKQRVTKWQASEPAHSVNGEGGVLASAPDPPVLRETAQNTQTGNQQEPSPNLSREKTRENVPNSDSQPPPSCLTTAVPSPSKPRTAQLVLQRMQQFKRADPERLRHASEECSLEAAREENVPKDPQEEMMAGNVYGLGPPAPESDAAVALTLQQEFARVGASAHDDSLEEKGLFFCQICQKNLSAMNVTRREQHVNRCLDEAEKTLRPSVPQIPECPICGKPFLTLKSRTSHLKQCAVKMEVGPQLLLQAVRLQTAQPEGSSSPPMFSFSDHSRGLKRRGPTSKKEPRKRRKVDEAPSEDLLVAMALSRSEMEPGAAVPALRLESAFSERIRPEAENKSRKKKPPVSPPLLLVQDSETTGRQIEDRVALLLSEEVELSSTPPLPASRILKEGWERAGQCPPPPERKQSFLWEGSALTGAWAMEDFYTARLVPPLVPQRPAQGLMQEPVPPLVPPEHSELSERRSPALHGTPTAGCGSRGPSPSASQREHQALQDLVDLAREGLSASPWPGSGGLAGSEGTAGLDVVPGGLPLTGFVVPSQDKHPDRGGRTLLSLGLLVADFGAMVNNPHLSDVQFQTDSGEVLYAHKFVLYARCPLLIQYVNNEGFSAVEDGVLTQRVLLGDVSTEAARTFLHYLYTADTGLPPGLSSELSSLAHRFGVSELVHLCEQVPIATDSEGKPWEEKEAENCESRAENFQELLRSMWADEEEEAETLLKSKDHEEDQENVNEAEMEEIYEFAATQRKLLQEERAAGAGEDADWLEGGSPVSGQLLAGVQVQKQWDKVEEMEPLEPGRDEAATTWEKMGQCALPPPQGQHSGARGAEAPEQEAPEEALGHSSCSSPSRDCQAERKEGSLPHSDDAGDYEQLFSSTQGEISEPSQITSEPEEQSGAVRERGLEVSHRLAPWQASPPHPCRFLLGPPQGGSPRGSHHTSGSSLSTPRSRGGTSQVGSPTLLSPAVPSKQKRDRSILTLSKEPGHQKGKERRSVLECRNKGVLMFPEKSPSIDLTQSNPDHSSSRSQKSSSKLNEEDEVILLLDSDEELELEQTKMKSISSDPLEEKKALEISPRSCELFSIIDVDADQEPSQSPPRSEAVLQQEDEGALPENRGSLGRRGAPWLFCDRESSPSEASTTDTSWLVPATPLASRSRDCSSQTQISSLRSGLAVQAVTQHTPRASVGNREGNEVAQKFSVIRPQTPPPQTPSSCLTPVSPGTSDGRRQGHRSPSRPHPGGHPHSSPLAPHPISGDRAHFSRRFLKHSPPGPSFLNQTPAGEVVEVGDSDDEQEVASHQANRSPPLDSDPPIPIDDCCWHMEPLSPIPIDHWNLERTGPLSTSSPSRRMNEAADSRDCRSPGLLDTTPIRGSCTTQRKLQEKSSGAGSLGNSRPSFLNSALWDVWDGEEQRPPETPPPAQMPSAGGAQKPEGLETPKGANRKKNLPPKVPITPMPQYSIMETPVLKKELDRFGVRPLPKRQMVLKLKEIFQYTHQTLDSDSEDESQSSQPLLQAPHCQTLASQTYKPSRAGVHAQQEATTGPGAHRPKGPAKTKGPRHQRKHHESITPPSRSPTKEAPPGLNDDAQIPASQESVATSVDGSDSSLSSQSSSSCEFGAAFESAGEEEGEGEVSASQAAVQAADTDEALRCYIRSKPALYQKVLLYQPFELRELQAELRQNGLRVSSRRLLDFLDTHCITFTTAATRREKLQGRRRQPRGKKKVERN
UniProt Q9BV35: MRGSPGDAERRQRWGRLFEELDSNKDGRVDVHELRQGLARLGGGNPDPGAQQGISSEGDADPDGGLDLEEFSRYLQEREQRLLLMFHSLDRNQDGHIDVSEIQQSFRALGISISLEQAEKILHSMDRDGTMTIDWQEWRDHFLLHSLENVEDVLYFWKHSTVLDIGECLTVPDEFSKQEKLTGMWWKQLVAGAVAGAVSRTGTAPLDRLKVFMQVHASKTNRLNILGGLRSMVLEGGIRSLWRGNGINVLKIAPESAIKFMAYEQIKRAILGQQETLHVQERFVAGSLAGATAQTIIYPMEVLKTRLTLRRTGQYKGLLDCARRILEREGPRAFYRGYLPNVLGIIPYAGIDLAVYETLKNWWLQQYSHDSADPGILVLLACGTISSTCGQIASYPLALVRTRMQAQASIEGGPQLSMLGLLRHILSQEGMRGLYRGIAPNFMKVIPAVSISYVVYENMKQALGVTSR
UniProt Q9BZD2: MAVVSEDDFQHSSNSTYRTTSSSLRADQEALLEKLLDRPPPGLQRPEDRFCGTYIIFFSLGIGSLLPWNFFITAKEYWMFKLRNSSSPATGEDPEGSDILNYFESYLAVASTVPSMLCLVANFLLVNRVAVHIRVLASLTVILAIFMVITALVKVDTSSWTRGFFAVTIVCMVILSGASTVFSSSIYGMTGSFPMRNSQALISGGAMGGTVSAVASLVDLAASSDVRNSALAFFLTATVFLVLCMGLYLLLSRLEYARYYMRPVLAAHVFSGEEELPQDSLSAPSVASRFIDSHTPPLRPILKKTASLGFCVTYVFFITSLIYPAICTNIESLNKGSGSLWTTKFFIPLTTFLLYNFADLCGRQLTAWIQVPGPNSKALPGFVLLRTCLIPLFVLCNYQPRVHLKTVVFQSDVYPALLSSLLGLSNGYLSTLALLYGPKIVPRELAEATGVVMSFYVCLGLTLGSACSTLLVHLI
UniProt Q3KQZ1: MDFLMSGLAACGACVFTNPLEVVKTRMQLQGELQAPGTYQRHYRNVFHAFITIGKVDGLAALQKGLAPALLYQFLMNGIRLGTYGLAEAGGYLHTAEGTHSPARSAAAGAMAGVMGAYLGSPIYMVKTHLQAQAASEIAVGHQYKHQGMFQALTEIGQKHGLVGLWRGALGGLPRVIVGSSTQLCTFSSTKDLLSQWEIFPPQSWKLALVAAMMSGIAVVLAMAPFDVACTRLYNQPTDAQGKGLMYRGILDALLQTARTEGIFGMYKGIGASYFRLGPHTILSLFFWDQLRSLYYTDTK
UniProt Q9NTN3, whole entry, looked up: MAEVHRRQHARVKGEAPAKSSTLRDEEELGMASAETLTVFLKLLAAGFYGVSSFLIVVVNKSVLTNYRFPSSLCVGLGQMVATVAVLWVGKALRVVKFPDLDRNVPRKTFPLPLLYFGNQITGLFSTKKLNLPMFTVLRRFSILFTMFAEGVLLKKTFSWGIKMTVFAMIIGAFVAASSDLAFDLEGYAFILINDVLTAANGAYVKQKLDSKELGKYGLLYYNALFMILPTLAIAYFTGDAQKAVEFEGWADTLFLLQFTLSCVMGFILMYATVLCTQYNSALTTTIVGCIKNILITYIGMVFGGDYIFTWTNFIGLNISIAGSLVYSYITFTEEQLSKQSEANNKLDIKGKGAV
UniProt Q9BZJ4: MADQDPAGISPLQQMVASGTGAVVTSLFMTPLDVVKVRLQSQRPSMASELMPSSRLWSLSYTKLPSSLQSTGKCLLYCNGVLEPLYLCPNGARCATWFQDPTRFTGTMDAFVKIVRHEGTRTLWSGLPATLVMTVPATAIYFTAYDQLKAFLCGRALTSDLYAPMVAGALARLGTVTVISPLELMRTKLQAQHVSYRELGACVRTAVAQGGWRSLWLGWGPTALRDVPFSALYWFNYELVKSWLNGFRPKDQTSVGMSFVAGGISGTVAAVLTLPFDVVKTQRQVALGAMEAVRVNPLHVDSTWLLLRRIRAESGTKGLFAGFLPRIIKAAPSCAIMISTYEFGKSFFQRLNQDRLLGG
UniProt Q8IZM9: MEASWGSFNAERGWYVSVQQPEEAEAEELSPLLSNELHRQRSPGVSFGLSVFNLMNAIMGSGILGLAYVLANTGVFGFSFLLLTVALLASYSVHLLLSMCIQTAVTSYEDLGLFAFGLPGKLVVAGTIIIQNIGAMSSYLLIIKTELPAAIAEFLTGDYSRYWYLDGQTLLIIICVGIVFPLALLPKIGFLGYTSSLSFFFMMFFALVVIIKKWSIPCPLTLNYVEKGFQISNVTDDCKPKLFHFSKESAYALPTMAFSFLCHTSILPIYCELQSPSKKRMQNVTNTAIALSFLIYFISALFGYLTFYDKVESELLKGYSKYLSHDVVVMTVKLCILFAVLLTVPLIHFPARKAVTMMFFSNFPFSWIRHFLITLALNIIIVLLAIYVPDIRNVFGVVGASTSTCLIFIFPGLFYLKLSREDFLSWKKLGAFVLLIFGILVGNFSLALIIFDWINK
UniProt Q8IVJ1: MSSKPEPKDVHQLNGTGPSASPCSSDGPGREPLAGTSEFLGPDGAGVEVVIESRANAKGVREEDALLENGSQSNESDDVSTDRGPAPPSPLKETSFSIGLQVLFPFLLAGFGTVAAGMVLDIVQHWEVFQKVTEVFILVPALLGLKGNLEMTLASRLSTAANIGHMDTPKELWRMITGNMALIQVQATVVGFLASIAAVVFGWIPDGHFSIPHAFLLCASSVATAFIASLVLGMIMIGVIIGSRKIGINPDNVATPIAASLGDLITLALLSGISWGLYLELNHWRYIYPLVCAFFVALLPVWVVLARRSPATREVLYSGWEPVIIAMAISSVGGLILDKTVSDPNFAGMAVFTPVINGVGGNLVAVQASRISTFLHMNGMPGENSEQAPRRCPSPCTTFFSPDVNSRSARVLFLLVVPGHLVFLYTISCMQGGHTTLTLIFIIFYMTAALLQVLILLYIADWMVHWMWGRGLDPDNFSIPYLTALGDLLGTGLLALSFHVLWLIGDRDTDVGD
UniProt P78383: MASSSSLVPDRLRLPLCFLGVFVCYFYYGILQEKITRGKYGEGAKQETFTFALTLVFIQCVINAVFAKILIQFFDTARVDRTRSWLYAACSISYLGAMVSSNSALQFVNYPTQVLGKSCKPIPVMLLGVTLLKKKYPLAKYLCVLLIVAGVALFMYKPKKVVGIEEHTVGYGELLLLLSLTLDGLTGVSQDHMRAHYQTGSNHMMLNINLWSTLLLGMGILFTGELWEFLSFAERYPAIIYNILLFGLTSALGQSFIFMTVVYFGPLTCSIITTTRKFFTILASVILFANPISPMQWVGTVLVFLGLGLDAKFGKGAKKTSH
UniProt Q99717: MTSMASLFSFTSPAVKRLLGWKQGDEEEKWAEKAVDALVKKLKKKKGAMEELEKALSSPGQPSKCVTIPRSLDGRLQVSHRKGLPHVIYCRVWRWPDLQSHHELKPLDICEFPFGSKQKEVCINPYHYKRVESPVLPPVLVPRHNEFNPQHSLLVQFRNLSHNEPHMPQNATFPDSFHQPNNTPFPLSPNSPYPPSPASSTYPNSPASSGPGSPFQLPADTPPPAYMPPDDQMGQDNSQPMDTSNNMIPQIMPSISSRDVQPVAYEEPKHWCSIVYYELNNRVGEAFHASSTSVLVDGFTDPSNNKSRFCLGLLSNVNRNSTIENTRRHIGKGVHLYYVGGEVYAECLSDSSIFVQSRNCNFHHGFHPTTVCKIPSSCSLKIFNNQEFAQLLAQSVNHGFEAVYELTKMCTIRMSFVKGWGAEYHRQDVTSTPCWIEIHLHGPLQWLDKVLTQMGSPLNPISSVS
UniProt P78382: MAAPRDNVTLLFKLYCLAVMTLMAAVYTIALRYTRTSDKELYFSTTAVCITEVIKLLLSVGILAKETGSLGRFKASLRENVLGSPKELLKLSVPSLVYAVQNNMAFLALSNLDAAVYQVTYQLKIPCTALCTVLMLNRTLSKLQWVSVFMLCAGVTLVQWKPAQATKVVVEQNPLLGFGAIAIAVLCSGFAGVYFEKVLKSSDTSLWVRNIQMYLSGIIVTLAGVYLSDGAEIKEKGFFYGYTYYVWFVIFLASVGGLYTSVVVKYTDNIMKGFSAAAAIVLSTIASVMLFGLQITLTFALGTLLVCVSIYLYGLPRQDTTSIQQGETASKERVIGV
UniProt Q8N755: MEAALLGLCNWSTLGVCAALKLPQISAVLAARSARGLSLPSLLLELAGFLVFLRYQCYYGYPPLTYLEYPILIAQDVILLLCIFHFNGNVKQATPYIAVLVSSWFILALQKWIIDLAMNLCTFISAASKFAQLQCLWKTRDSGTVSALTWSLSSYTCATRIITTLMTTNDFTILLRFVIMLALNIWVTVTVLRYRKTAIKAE

Legend:
Test in all cases: log2 fold change, soluble protein after heating vs DMSO (PISA); higher = thermal stabilisation; K562 lysate, 10 uM; active = over 0.2 and 3.5 SD of the protein, either way, in both replicates (recomputed)
[1] = compound: C=CC(=O)N1CCC[C@@H](n2nc(-c3ccc(Oc4ccccc4)cc3)c3c(N)ncnc32)C1 [ibrutinib]
How it was run: (§1)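 A 30 min treatment with 10 μM compound was applied to crude K562 extract at 1 mg/mL protein in PBS pH 7.4 with 1 mM MgCl2. Heating for 3 min spanned 48°C-58°C, after which aliquots were pooled, adjusted to 0.5% NP-40 at 4°C and spun at 21,000xg for 90 min. TMTpro 16plex LC-MS/MS of the supernatant, with channel sums equalised, gave values recorded as log-two fold change in thermal stability against solvent controls, from duplicates.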

[2] = compound: CC1=C(C(CC(=O)N1)C2=CC=C(C=C2)C(F)(F)F)C(=O)NC3=C(C=C4C(=C3)C=NN4)F
How it was run: as §1

[3] = compound: CC(C)C1=C2N=C(C=C(N2N=C1)NCC3=CC=CC=C3)NCCCCCCN
How it was run: as §1

[4] = compound: CC1=C(C=C(C=C1)NC(=O)C2=CC(=CC=C2)C(C)(C)C#N)NC3=CC4=C(C=C3)N=CN(C4=O)C
How it was run: as §1

[5] = compound: CC(=O)c1cnc2ccc(-c3cc(Cl)c(O)c(Cl)c3)nc2c1N[C@H]1CC[C@H](CN(C)C)CC1
How it was run: as §1

[6] = compound: CC(C)(C)Cn1c(N)nc2ccc(-c3[nH]c(C(C)(C)C)nc3-c3ccc(F)cc3)nc21 [ralimetinib]
How it was run: as §1

[7] = compound: CC(C)(O)CC(=O)NCCn1ccc2ncnc(Nc3ccc(Oc4cccc(C(F)(F)F)c4)c(Cl)c3)c21
How it was run: as §1

[8] = compound: CC1=C(C=C(C=C1)NC(=O)C2=CC(=CC=C2)N(C)C)NC(=O)C3=CC=C(C=C3)O
How it was run: as §1

[9] = compound: CC1=CC=C(C=C1)SC2=C3C=C(SC3=CN=C2)C(=O)N
How it was run: as §1

[10] = compound: CC1=C(C2=C(C=C1)C(=O)C3=CC=CC=C3N2CCCN)C
How it was run: as §1

Measured: log2 fold change

SLCO4A1 (UniProt Q96BD0)
inactive: [1] 0.081 | [2] 0.115

SLC26A11 (UniProt Q86WA9)
inactive: [3] 0.253 | [4] 0.088

SLC39A8 (UniProt Q9C0K1)
inactive: [5] -0.115 | [6] 0.116 | [7] -0.001 | [3] 0.024 | [2] 0.036 | [4] 0.067 | [8] 0.02 | [9] 0.02

SLC46A1 (UniProt Q96NT5)
inactive: [5] 0.103 | [3] -0.03 | [10] -0.144 | [9] -0.065

SLX4 (UniProt Q8IY92)
inactive: [3] 0.151 | [10] 0

SLC25A23 isoform 3 (UniProt Q9BV35)
inactive: [5] 0.069 | [6] -0.041 | [7] -0.014 | [3] -0.063 | [10] -0.041 | [4] -0.087 | [8] -0.073 | [9] -0.249

SMAGP (UniProt Q0VAQ4)
inactive: [5] -0.095 | [6] 0.092 | [7] 0.037 | [3] 0 | [2] 0.043 | [10] 0.107 | [4] 0.065 | [8] 0.045 | [9] 0.113

SLC39A6 (UniProt Q13433)
inactive: [5] 0.011 | [6] -0.021 | [7] -0.073 | [3] 0.011 | [2] -0.018 | [4] -0.022 | [8] -0.026 | [9] -0.037

SLC29A3 (UniProt Q9BZD2)
inactive: [5] 0.094 | [6] 0.094 | [7] -0.021 | [3] -0.006 | [2] 0 | [4] 0.019 | [8] 0.017 | [9] -0.081

SLC25A36 (UniProt Q96CQ1)
inactive: [5] -0.012 | [6] 0.142 | [7] -0.048 | [3] 0.1 | [2] 0.044 | [10] -0.16 | [4] 0.011 | [8] 0.027 | [9] 0.013

SLC9A7 (UniProt Q96T83)
inactive: [1] 0.118 | [5] -0.126 | [4] -0.417 | [9] -0.102

SLC25A35 (UniProt Q3KQZ1)
inactive: [4] 0.051

Copied from the entries so far (2 entries):
SLC9A7 (UniProt Q96T83)
inactive: [1] 0.118 | [5] -0.126 | [4] -0.417 | [9] -0.102

SLC25A35 (UniProt Q3KQZ1)
inactive: [4] 0.051

(continued)

SLC35D1 (UniProt Q9NTN3)
inactive: [4] 0.039

SLFN14 (UniProt P0C7P3)
inactive: [1] -0.119 | [4] -0.017

SMAD3 (UniProt P84022)
inactive: [5] 0.018 | [6] -0.055 | [7] -0.007 | [2] -0.018 | [10] 0.007 | [4] 0.024 | [8] -0.005 | [9] 0.012

SLC2A13 (UniProt Q96QE2)
inactive: [3] 0.046 | [10] -0.01

SLC25A39 (UniProt Q9BZJ4)
inactive: [3] -0.111 | [2] -0.123 | [10] -0.171

SLC38A6 isoform 2 (UniProt Q8IZM9)
inactive: [3] -0.09

SLC43A3 (UniProt Q8NBI5)
inactive: [1] 0.007 | [5] -0.454 | [6] 0.032 | [7] 0.026 | [8] 0.09 | [9] -0.235

SLC8B1 (UniProt Q6J4K2)
inactive: [5] 0.061 | [10] 0.05 | [9] 0.067

SLC41A1 (UniProt Q8IVJ1)
inactive: [5] 0.007 | [6] -0.003 | [7] 0.112 | [3] -0.037 | [2] -0.023 | [4] -0.081 | [8] 0.09 | [9] 0.041

SLC35B1 isoform 2 (UniProt P78383)
inactive: [5] -0.04 | [6] 0.062 | [7] -0.016 | [3] 0.005 | [2] 0.041 | [10] -0.004 | [4] 0.07 | [8] 0.035 | [9] -0.107

SLC35A3 isoform 2 (UniProt Q9Y2D2)
inactive: [5] -0.034 | [6] -0.027 | [7] 0.234 | [3] -0.027 | [2] -0.133 | [4] 0.111 | [8] -0.025 | [9] 0.051

SLC3A2 (UniProt F5H867)
inactive: [1] -0.06 | [5] 0.016 | [2] -0.039 | [9] -0.052

SMAD5 (UniProt Q99717)
inactive: [1] 0.084 | [3] -0.025 | [2] 0.189 | [10] 0.036 | [4] 0.105

SLC35A1 (UniProt P78382)
inactive: [1] 0.061 | [3] 0.117 | [2] -0.022 | [4] 0.142

SLC39A13 (UniProt Q96H72)
inactive: [6] 0.004 | [7] -0.137 | [3] -0.003 | [8] 0.25

SLC25A16 (UniProt P16260)
inactive: [3] -0.04 | [2] 0.126 | [4] -0.012

SLC50A1 (UniProt Q9BRV3)
inactive: [5] -0.085 | [6] -0.1 | [7] -0.483 | [3] -0.095 | [10] -0.053 | [4] 0.16 | [8] 0.04 | [9] -0.065

SLC66A3 (UniProt Q8N755)
inactive: [5] 0.033 | [10] -0.052 | [4] -0.193 | [9] 0.006

SLC40A1 (UniProt Q9NP59)
inactive: [5] -0.028 | [6] -0.037 | [7] -0.096 | [3] 0.042 | [2] -0.017 | [10] 0.049 | [4] -0.034 | [8] 0.041 | [9] -0.055

SLC41A3 isoform 9 (UniProt Q96GZ6)
inactive: [1] 0.025 | [6] -0.151 | [7] 0.023 | [2] 0.03 | [8] 0.019

SLC23A2 (UniProt Q9UGH3)
inactive: [5] 0.12 | [6] 0.023 | [7] -0.117 | [3] -0.039 | [10] 0.002 | [4] 0.037 | [8] -0.004 | [9] 0.142
